Results published in PubChem BioAssay AID493014 (National Center for Advancing Translational Sciences (NCATS), 2011).
Out of some 340,000 compounds screened, about 170 (0.05%) were called active. This list was built around the results that the source calls inconclusive (neither active nor inactive); the mix of calls is not that of the screen. Calls come from the whole dose curve; as a rule, active = well fitted inhibition curve with a large enough effect in the signal ratio, with a control signal flat (not every such curve was filed as active); inconclusive = small, poorly fitted or top-dose-only effect, or effect the other way, or a change in a side signal; inactive = flat fitted curve, though single readings scatter; the % refers to the signal ratio. Potencies beside an inconclusive call are fits to weak or partial responses and may not hold up.
Potency is the fitted concentration of half-maximal effect.

Assay: qHTS Assay to Find Inhibitors of Chronic Active B-Cell Receptor Signaling;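 for activity change, negative = inhibition: plate controls were basal doxycycline-induced cells for no effect and cells given 10 µM MG132 for full effect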
Details: ABC-DLBCL IkBa-CBG/CBR reporter, luminescence ratio (green luciferase fused to IkBa over red control in TMD8 lymphoma cells), 4 h; activity change, negative = inhibition: at 46.1 µM (top of the series)
In short: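 Cell line TMD8 (human ABC DLBCL), stably expressing tet-inducible CBG68-IkBa fusion and CBR; IMDM/0.5% FBS; cpd up to 46 uM; dox induction, 4 h, 37C/5% CO2; dual luminescence; green/red ratio; MG132 control.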
In the case of `CCn1c(SCC(=O)Nc2c(C)n(C)n(-c3ccccc3)c2=O)nc2c1c(=O)n(C)c(=O)n2C`, the activity change, negative = inhibition is reported as inconclusive: 8.29%. For `Cc1cc(C)n(CCOc2ccc(Cl)cc2Cl)n1`, the activity change, negative = inhibition was inconclusive: 2.9%. For `N/C(=N\OC(=O)c1cccs1)c1ccccc1`, the Potency was inconclusive: 29.1 µM [falling, single point]. With `O=c1c(Cl)c(Nc2cccc(Cl)c2)cnn1-c1nc2ccccc2s1` the Potency was inconclusive: 18.4 µM [falling, partial curve, poor fit]. For `Cc1ccc(S(=O)(=O)NCc2ccc(C(=O)N3CCN(c4ccc([N+](=O)[O-])cc4)CC3)cc2)cc1`, the Potency was inconclusive: 11.2 µM [falling, partial curve, poor fit]. With `CS(=O)(=O)c1sc(C(=O)NC(=S)Nc2ccc(OC(F)(F)F)cc2)c2c1C=CCC2` the activity change, negative = inhibition was inconclusive: 1.13%. For `CCOC(=O)CC(=O)CSc1nc(-c2cccnc2)cc(C)c1C#N`, the “activity change, negative = inhibition” value was inactive: 7.45%. For `Nc1ccc(N=Nc2ccccc2)c2cccnc12`, the Potency was inconclusive: 20 µM [falling, partial curve, poor fit]. For `COc1cccc(C2=CC(c3ccc(N(C)C)cc3)n3nnnc3N2)c1` (stereo not drawn), the “activity change, negative = inhibition” value was inactive: -9.87%. For `O=C(Nc1ccc(N=Nc2ccccc2)c(NC(=O)C2CCCO2)c1)C1CCCO1` (stereo not drawn), the activity change, negative = inhibition was inconclusive: 7.63%. For `CCOC(=O)C1=C(C)N=c2s/c(=C\c3ccc(OCC(=O)O)cc3)c(=O)n2C1c1ccc(Cl)cc1` (stereo not drawn), the “activity change, negative = inhibition” value was inactive: 9.27%. With `COc1ccc(CN2CCC(CNS(=O)(=O)c3cccc(C(F)(F)F)c3)CC2)cc1` the activity change, negative = inhibition was inconclusive: -8.76%. For `Cc1nn(-c2ccccc2)c(N2CCCC2)c1/C=N/NC(=S)Nc1cc(C(F)(F)F)ccc1Cl`, the Potency was inconclusive: 5.8 µM [rising, partial curve, poor fit]. For `CCCc1ccccc1OCCNS(=O)(=O)c1cc2c(cc1C)OCC(=O)N2`, the activity change, negative = inhibition was inconclusive: 0.288%. With `O=C(CSc1nc(=O)n(Cc2ccco2)c2c1CCC2)NCc1ccc(F)cc1` the activity change, negative = inhibition was inconclusive: 2.44%. In the case of `COc1ccc(N=Cc2c(O)n(-c3cccc(C)n3)c(=O)c3ccccc23)cc1`, the activity change, negative = inhibition is reported as inconclusive: 2.19%. For `COc1ccc(Cl)c2c1[nH]c1nc(SCc3ccccn3)nnc12`, the Potency was inconclusive: 20 µM [rising, partial curve, poor fit]. For `O=C(N=Nc1c(O)[nH]c2ccccc12)c1ccco1`, the Potency was inconclusive: 14.1 µM [falling, partial curve]. In the case of `CCOC(=O)c1ccc(N2C(=O)c3n[nH]c(C)c3C2c2ccccn2)cc1` (stereo not drawn), the Potency is reported as inconclusive: 22.4 µM [falling, single point]. With `O=C(Nc1ccccc1F)c1ccc(-c2cccc([N+](=O)[O-])c2)o1` the Potency was inconclusive: 4.47 µM [falling, partial curve]. With `O=C(CCc1ccc(O)cc1)c1c(O)cc(O)cc1O` the activity change, negative = inhibition was inconclusive: -5.72%. With `Cc1ccc(-c2nn(-c3ccccc3)cc2CC(=S)N2CCOCC2)cc1` the “activity change, negative = inhibition” value was inactive: -10.9%. For `CC(C)(C)C(=O)N1CCN(c2nc3c(F)cccc3s2)CC1`, the Potency was inconclusive: 3.16 µM [rising, full curve, poor fit]. With `Cc1ccc(NC(=O)CNc2ccc(OC(C)C)cc2)cc1` the activity change, negative = inhibition was inconclusive: -18.1%. With `CCOC(=O)c1ccc(CC(=O)c2ccc(O)cc2O)o1` the “activity change, negative = inhibition” value was inactive: -19.5%. In the case of `Cn1c(C(=O)N2CCCC(C(=O)N3CCN(C(=O)c4ccco4)CC3)C2)cc2sccc21` (stereo not drawn), the “activity change, negative = inhibition” value is reported as inactive: 16%. In the case of `CN=C1S/C(=C/c2cn(CC(=O)OC)c3ccccc23)C(=O)N1C`, the Potency is reported as inconclusive: 17.8 µM [falling, partial curve, poor fit]. With `Cc1nnc(SCC(=O)Nc2ccccc2)c2ccccc12` the Potency was inconclusive: 25.1 µM [falling, partial curve]. With `COc1ccc(/C=C/C(=O)Oc2cccc(/C=N/NC(=O)c3cccc(F)c3)c2)cc1` the activity change, negative = inhibition was inconclusive: -27.1%. For `COc1ccccc1N1C(=O)CC(N(O)c2ccccc2)C1=O` (stereo not drawn), the Potency was inconclusive: 17.8 µM [falling, partial curve]. For `COc1cccc(NC2SC(=O)N(c3ccccc3)C2=O)c1` (stereo not drawn), the Potency was inconclusive: 20.6 µM [falling, partial curve]. With `Cc1cc(OC2CCCCC2)nc(NCc2ccccc2)n1` the activity change, negative = inhibition was inconclusive: 8.97%. With `O=C(COc1ccc2c(c1)OCO2)NCc1cccs1` the activity change, negative = inhibition was inconclusive: -11.7%. For `Cc1ccc(N2C(=O)CC(Sc3ccccc3C(=O)O)C2=O)cc1` (stereo not drawn), the activity change, negative = inhibition was inconclusive: -18.4%. In the case of `O=C(NNC(=O)C1CC(c2cccs2)=NO1)NC1CCCCC1` (stereo not drawn), the “activity change, negative = inhibition” value is reported as inactive: -3.01%. With `O=C1CCCc2[nH]c3cccc(/C(=C/c4ccccc4)c4ccccc4)c3c21` the activity change, negative = inhibition was inconclusive: -60.6%. With `CN=c1scc(-c2ccccc2F)n1/N=C/c1ccc[nH]1` the activity change, negative = inhibition was inconclusive: -126%. In the case of `Cc1cc(NC2CCCC2)n2ncc(-c3ccccc3)c2n1`, the Potency is reported as inconclusive: 20 µM [falling, single point]. With `O=C(N/N=C/c1ccccc1O)C1CC(=O)N(c2ccc(Cl)cc2)C1` (stereo not drawn) the activity change, negative = inhibition was inconclusive: -14.9%. In the case of `COc1ccc(OC)c(S(=O)(=O)N(C(C)=O)c2ccc3oc(=O)sc3c2)c1`, the activity change, negative = inhibition is reported as inconclusive: -27.2%. For `O=C(O)c1ccc2c(c1)C(=O)N(NC(=O)c1ccc(O)cc1)C2=O`, the Potency was inconclusive: 2.31 µM [falling, partial curve]. For `COc1ccc(OCc2cc(C(=O)N3CCCC(OC)C3)no2)c2ccccc12` (stereo not drawn), the activity change, negative = inhibition was inconclusive: -13.3%. In the case of `COC(=O)c1ccc(OCCOCCOc2cccc3ccc(C)nc23)cc1`, the activity change, negative = inhibition is reported as inconclusive: -1.17%. For `OCCN(CCO)CC(O)Cn1c2ccccc2c2ccccc21` (stereo not drawn), the activity change, negative = inhibition was inconclusive: -2.95%. With `O=C(NCCCN1CCCCC1)c1cc(Sc2ccc(Cl)cc2)nc2ccccc12` the “activity change, negative = inhibition” value was inactive: 7.56%. For `CN(C)Cc1cc2ccccc2c2c1COC2`, the “activity change, negative = inhibition” value was inactive: 0.377%. With `Cc1ccccc1NC(=O)Cn1c([N+](=O)[O-])cnc1C` the activity change, negative = inhibition was inconclusive: 8.84%. With `Brc1ccccc1Cn1c(-c2cscn2)nc2ccccc21` the activity change, negative = inhibition was inconclusive: 12.7%. With `CCOC(=O)N1CCN(S(=O)(=O)c2ccc(C(=O)N(CCCN(C)C)c3nc4ccc(OC)cc4s3)cc2)CC1` the “activity change, negative = inhibition” value was inactive: 2.1%. With `Cc1ccc(-n2c3c(cc(C(=O)NCc4ccco4)c2=O)C(=O)CC(C)(C)C3)cc1` the activity change, negative = inhibition was inconclusive: -1.19%. With `CC(O)c1nc2ccccc2n1Cc1nnc(-c2ccc(Cl)cc2)o1` (stereo not drawn) the activity change, negative = inhibition was inconclusive: 5.06%. With `COc1ccc(C2CC(=O)c3cnc(N4CCN(Cc5ccccc5)CC4)nc3C2)cc1` (stereo not drawn) the “activity change, negative = inhibition” value was inactive: -8.26%. For `CN(C)c1ccc(C(c2nnnn2CCOC(=O)Nc2ccc(Cl)cc2)N2CCOCC2)cc1` (stereo not drawn), the activity change, negative = inhibition was inconclusive: -17.5%. For `CN1C(=O)/C(=C2/C=Cc3ccccc3N2CCCS(=O)(=O)O)SC1=S`, the Potency was inconclusive: 11.6 µM [rising, partial curve, poor fit]. For `Cc1ccc(-c2nn(-c3ccccc3)cc2C2SCC(=O)N2Cc2ccccc2)o1` (stereo not drawn), the “activity change, negative = inhibition” value was inactive: 5.47%. In the case of `Cc1ccc(S(=O)(=O)Nc2nc(C)c(C(=O)N/N=C/c3ccccc3)s2)cc1`, the Potency is reported as inconclusive: 10 µM [falling, partial curve]. In the case of `C=CCNC(=O)/C(C#N)=C/c1ccc(SC)cc1`, the Potency is reported as inconclusive: 25.1 µM [falling, single point]. For `COc1cccc(COC(=O)c2ccc(S(=O)(=O)N3CCC(C)CC3)cc2)c1OC`, the “activity change, negative = inhibition” value was inactive: -2.18%. With `O=c1cc(-c2ccc(O)cc2)oc2ccc(O)cc12` the activity change, negative = inhibition was inconclusive: 12.2%. For `C(=C\c1ccccc1)/CSc1ccccn1`, the activity change, negative = inhibition was inconclusive: 4.12%. For `COc1cc(C(=O)NNC(=O)c2cc(-c3ccccc3)n[nH]2)cc(OC)c1C`, the activity change, negative = inhibition was inconclusive: -0.986%. With `CCCCCCSc1ccc([C@@H]2[C@@H]3C(=O)N(CC)C(=O)[C@@H]3[C@]3(C(=O)OC)CCCCN23)cc1OC` the “activity change, negative = inhibition” value was inactive: 1.7%. For `Cc1ccc(NC(=S)NC(NC(=O)c2ccccc2)C(Cl)(Cl)Cl)c(C)c1` (stereo not drawn), the activity change, negative = inhibition was inconclusive: 9.67%. With `CCn1c(=O)c2cc(C(=O)NCCC(C)C)sc2c2ccccc21` the activity change, negative = inhibition was inconclusive: 10.6%. With `O=C(CSc1nc(-c2ccccc2)cn1-c1ccccc1)Nc1ccccc1` the Potency was inconclusive: 15.8 µM [rising, single point]. In the case of `CC(=O)NC(=S)Nc1ccc(NC(=S)NC(=O)c2cccs2)cc1`, the “activity change, negative = inhibition” value is reported as inactive: 7.65%. In the case of `COc1cc(C2NC(=O)NC(C)=C2C(=O)OCC2CCCO2)cc(OC)c1OC` (stereo not drawn), the “activity change, negative = inhibition” value is reported as inactive: -0.247%. For `Cc1ccc(NC(=O)c2ccc(OC(=O)COc3cccc(Cl)c3)cc2)cc1`, the Potency was inconclusive: 1.84 µM [falling, full curve]. With `CCOC(=O)C1=C(C)N(C[C@@H]2CC[C@@H](Cc3ccc4cc(OC)ccc4c3)O2)C(=O)NC1c1ccc(OC)cc1` (stereo partly drawn) the “activity change, negative = inhibition” value was inactive: -12.5%. With `NNC(=O)c1cccc(COCC(F)(F)C(F)F)c1` the Potency was inconclusive: 10 µM [falling, partial curve, poor fit]. With `COC(=O)c1ccc(NC(=O)CN2CCCC2)cc1` the activity change, negative = inhibition was inconclusive: 18.1%. With `Cc1ccc2cc(C(c3nnnn3C3CCCC3)N3CCN(c4ccccc4)CC3)c(=O)[nH]c2c1` (stereo not drawn) the activity change, negative = inhibition was inconclusive: 10.6%. In the case of `CCOC(=O)N1CCN(S(=O)(=O)c2ccc(F)c(C(=O)Nc3ccc(C)c(Cl)c3)c2)CC1`, the activity change, negative = inhibition is reported as inconclusive: -8.91%. In the case of `Cc1cc(C)nc(NC(=O)c2cccs2)c1`, the activity change, negative = inhibition is reported as inconclusive: 8.69%. With `COc1ccccc1NC(=O)CCCN1C(=O)C(c2ccccc2)Oc2cccnc21` (stereo not drawn) the “activity change, negative = inhibition” value was inactive: -0.122%. For `COc1ccc(OC)c(-c2cc(C(=O)N3CCN(c4ccccc4)CC3)no2)c1`, the Potency was inconclusive: 3.16 µM [cytotoxic, full curve, poor fit]. In the case of `Nn1c(COc2ccccc2)nc2ccccc2c1=O`, the activity change, negative = inhibition is reported as inconclusive: 1.58%. In the case of `Clc1ccc(OCc2nn3c(-c4ccco4)nnc3s2)cc1`, the activity change, negative = inhibition is reported as inconclusive: 4.09%.
